In test [1] the target is T1, SlLHA1-nYFP (tomato (Solanum lycopersicum)) (UniProt P22180).
T1 sequence: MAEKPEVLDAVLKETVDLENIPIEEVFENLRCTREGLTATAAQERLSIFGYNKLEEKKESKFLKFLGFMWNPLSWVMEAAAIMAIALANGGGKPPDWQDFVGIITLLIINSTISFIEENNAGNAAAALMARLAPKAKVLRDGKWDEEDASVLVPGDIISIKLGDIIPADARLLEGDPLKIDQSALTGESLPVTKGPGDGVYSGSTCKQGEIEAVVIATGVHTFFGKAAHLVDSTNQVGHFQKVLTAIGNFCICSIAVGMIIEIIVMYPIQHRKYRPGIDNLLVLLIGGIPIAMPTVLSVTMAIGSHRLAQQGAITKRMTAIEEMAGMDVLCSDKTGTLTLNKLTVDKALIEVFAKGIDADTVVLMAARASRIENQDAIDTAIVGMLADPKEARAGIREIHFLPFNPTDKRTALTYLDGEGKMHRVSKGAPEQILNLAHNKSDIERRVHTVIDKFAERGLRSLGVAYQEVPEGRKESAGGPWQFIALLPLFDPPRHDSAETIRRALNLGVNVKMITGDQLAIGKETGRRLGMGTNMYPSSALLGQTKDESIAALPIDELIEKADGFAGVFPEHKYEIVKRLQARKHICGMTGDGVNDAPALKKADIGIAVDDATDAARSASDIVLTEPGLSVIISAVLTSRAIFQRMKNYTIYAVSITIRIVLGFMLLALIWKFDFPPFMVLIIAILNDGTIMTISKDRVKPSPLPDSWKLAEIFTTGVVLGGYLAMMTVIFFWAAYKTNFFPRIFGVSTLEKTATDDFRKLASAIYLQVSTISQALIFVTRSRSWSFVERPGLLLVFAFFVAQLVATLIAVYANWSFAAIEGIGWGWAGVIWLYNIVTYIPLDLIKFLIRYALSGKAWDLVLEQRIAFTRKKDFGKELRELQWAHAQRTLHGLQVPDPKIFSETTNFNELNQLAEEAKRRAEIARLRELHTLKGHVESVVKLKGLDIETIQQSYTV
The test is described as follows: split reporter; BiFC: LHA1 or LHA4 fused with nYFP and SlPLL2 with cYFP, transiently expressed in N. benthamiana leaves; confocal microscopy.

Test [2] addresses T2, 3xFLAG-LHA1-R (regulatory domain of the plasma membrane H+-ATPase LHA1) (tomato (Solanum lycopersicum)) (UniProt P22180).
T2 sequence: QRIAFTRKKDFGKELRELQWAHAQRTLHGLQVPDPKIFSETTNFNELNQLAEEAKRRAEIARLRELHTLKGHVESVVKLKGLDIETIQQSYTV
In words: co-IP; 3xFLAG-tagged R domain precipitated with anti-FLAG M2 affinity gel from N. benthamiana leaf extract (150 mM NaCl, 50 mM Tris-HCl pH 7.5, 10% glycerol, 0.5% IGEPAL; 4 °C, 3 h), PLL2-sfGFP detected with anti-GFP; no systemin treatment.

These are yes or no findings as the source states them, for the method shown. In cells and extracts the contact can be indirect. Binding calls can cover weak binding; strength is not graded here. Where a sequence is shown, tags or fusion partners need not be part of it.

On to “SlPLL2-cYFP (tomato (Solanum lycopersicum)) (enzyme)”, for which the binding entry in test [1] was “binds”.

Turning to “SlPLL2^3A-sfGFP (phospho-dead variant, GFP fusion) (tomato (Solanum lycopersicum)) (enzyme)”, the binding entry in test [2] is “binds”.

As to “SlPLL2^3D-sfGFP (phospho-mimetic variant, GFP fusion) (tomato (Solanum lycopersicum)) (enzyme)”, in test [2], the binding result was “no binding”.

The values above are taken from paper PMC12283378.
